From patent US8709811B2, “Materials and methods for synthesis of a flavor and aroma volatile in plants” (University of Florida Research Foundation, Inc., priority 2003, dated 2014)

Experiment: GC volatiles analysis of ripe fruit, introgression line 8-2-1 vs control M82
Parameters: species or system tomato
Conditions: for Level in 8-2-1 ripe fruit relative to M82 fruit: GC on DB5 column; for Level in 8-2-1 ripe fruit compared with control M82 fruit: GC profiles

Row | SMILES | Level in 8-2-1 ripe fruit relative to M82 fruit | Level in 8-2-1 ripe fruit compared with control M82 fruit
1 | OCCc1ccccc1 [2-Phenylethanol] | approximately 250 × | higher levels
2 | O=CCc1ccccc1 [Phenylacetaldehyde, reference compound] | approximately 20 × | higher levels
